This assay concerns the target PTEN-induced putative kinase 1 (PINK1) (rat (endogenous in PC12)) (UniProt B5DFG1). In words: co-IP; PC12 cells treated with graded PbAc; lysis in 50 mM Tris-HCl, 150 mM NaCl, 1% Triton X, 2 mM EGTA, 1 mM MgCl2, 10% glycerol, NEM, MG132; anti-PINK1 on protein A agarose, overnight at 4 °C; beads without antibody as negative control; western blot for MFN2. Background: Immunoblotting shows a protein as a band on a membrane.

Protein sequences, listed by entry. Tags and fused reporters are not part of them. Residues count along the entry.
UniProt B5DFG1, residues 78-580: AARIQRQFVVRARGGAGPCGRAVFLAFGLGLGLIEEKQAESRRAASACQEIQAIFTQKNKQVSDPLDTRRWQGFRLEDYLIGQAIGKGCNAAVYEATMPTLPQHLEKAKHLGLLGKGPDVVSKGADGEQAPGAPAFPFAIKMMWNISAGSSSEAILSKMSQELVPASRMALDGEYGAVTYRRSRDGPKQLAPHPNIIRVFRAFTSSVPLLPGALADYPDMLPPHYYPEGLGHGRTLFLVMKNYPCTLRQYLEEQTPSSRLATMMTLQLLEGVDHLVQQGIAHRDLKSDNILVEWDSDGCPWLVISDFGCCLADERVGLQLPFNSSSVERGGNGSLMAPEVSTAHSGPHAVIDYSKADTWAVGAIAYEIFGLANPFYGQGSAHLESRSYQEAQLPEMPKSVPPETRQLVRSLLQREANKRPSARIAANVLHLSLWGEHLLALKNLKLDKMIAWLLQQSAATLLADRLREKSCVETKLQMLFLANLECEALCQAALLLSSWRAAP

From paper PMC9569474 come the findings set out here.

Results are given in words; binding and its absence hold for the method and conditions named. In cells and extracts the contact can be indirect. Some entries that bind do so weakly or less than the wild type. Where a sequence is shown, tags or fusion partners need not be part of it.

B1: Mitofusin2 (MFN2) (protein, UniProt Q8R500 1-757)
chain: MSLLFSRCNSIVTVKKDKRHMAEVNASPLKHFVTAKKKINGIFEQLGAYIQESAGFLEDTHRNTELDPVTTEEQVLDVKGYLSKVRGISEVLARRHMKVAFFGRTSNGKSTVINAMLWDKVLPSGIGHTTNCFLRVGGTDGHEAFLLTEGSEEKKSVKTVNQLAHALHQDEQLHAGSLVSVMWPNSKCPLLKDGLVLMDSPGIDVTTELDSWIDKFCLDADVFVLVANSESTLMQTEKQFFHKVSERLSRPNIFILNNRWDASASEPEYMEEVRRQHMERCTSFLVDELGVVDRAQAGDRIFFVSAKEVLSARVQKAQGMPEGGGALAEGFQVRMFEFQNFERRFEECISQSAVKTKFEQHTVRAKQIAEAVRLIMDSLHIAAQEQRVYCLEMREERQDRLRFIDKQLELLAQDYKLRIKQMTEEVERQVSTAMAEEIRRLSVLVDEYQMDFHPSPVVLKVYKNELHRHIEEGLGRNMSDRCSTAIASSLQTMQQDMIDGLKPLLPVSVRNQIDMLVPRQCFSLSYDLNCDKLCADFQEDIEFHFSLGWTMLVNRFLGPKNSRRALLGYNDQVQRPLPLTPANPSMPPLPQGSLTQEELMVSMVTGLASLTSRTSMGILVVGGVVWKAVGWRLIALSFGLYGLLYVYERLTWTTRAKERAFKRQFVEYASEKLQLIISYTGSNCSHQVQQELSGTFAHLCQQVDITRDNLEQEIAAMNKKVEALDSLQSKAKLLRNKAGWLDSELNMFIHQYLQPSR
As to B1, the binding result is on record as “binds”.
